Changes are numbered by the printed parent chain. These are yes or no findings as the source states them, for the method shown. Blank lines part the entries; values can stand above or below the molecule they belong to.
How the values were obtained:
[1] = target: T1, wild-type human small heat shock protein HspB8 (human) (UniProt Q9UJY1); test: SEC; equimolar mixture (30–40 µM each), reduced, preincubated 1 h at 4 °C in buffer B (20 mM Tris-acetate, 150 mM NaCl, 0.1 mM EDTA, 15 mM mercaptoethanol); Superdex 200 HR 10/30; fractions on SDS gels; correlation coefficient and molar ratio from band intensities; both purified
T1 sequence: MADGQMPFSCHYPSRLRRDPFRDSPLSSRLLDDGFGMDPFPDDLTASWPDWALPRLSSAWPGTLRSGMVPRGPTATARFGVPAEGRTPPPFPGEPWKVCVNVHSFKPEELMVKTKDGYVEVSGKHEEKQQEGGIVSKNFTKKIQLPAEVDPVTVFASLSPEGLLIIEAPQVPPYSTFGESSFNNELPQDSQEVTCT

Protein sequences, listed by entry. Tags and fused reporters are not part of them. Lines headed by an entry give the natural chain unless they say otherwise; changes in a name come on top. Chains listed by the source or under a name are the forms on record and can include a tag or linker.
UniProt P04792: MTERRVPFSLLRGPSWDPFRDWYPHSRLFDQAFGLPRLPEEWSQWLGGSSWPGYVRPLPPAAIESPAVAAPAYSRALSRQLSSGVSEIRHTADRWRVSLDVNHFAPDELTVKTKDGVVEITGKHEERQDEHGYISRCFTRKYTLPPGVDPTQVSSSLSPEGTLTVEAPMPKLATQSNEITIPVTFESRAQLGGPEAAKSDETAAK
HspB1 Δ26–30 (P04792, form named): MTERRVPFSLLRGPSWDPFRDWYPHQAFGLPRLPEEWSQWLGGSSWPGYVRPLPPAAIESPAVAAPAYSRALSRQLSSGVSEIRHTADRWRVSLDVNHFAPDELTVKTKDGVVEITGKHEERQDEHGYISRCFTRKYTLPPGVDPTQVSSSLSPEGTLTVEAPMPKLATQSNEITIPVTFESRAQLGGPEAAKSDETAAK

[2] = target: T1, wild-type human small heat shock protein HspB8 (human); test: SEC; equimolar mixture (30–40 µM each), reduced, preincubated 1 h at 42 °C in buffer B (20 mM Tris-acetate, 150 mM NaCl, 0.1 mM EDTA, 15 mM mercaptoethanol); Superdex 200 HR 10/30; fractions on SDS gels; correlation coefficient and molar ratio from band intensities; both purified
[3] = target: T2, wild-type human small heat shock protein HspB5 (human) (UniProt P02511); test: condition: only preincubated at 4 °C (without heating); 30–40 µM each; ion-exchange chromatography; equimolar mixture (30–40 µM each), reduced, preincubated 1 h at 4 °C in buffer D (20 mM phosphate pH 6.8, 0.1 mM PMSF, 15 mM mercaptoethanol); DEAE HiTrap, gradient 0–500 mM NaCl; fractions on SDS gels; correlation coefficient and molar ratio from band intensities; both purified
T2 sequence: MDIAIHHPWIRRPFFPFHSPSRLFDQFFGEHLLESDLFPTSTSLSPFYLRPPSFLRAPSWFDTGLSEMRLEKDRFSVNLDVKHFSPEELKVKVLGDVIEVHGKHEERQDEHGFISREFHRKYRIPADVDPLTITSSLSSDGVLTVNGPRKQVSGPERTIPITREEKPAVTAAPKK

[4] = target: T1, wild-type human small heat shock protein HspB8 (human); test: SEC; equimolar mixture (30–40 µM each), reduced, preincubated 1 h at 42 °C in buffer B (20 mM Tris-acetate, 150 mM NaCl, 0.1 mM EDTA, 15 mM mercaptoethanol); Superdex 200 HR 10/30; fractions on SDS gels; correlation coefficient and molar ratio from band intensities; both purified; remark: listed apart in the source
[5] = target: T3, wild-type human small heat shock protein HspB6 (human) (UniProt O14558); test: condition: only preincubated at 4 °C (without heating); 30–40 µM each; SEC; equimolar mixture (30–40 µM each), reduced, preincubated 1 h at 4 °C in buffer B (20 mM Tris-acetate, 150 mM NaCl, 0.1 mM EDTA, 15 mM mercaptoethanol); Superdex 200 HR 10/30; fractions on SDS gels; correlation coefficient and molar ratio from band intensities; both purified
T3 sequence: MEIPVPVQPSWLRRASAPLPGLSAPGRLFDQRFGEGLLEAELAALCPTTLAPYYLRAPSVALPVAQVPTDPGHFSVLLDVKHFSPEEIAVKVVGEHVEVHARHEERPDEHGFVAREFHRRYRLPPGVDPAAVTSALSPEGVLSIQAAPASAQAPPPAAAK

HspB8 R29A (human) [6] = target: T4, HspB8 R29A (human) (UniProt Q9UJY1); test: SEC; equimolar mixture (30–40 µM each), reduced, preincubated 1 h at 4 °C in buffer B (20 mM Tris-acetate, 150 mM NaCl, 0.1 mM EDTA, 15 mM mercaptoethanol); Superdex 200 HR 10/30; fractions on SDS gels; correlation coefficient and molar ratio from band intensities; both purified
T4 sequence: T1 sequence with R29A

HspB8 Δ28–32 (human) [7] = target: T5, HspB8 Δ28–32 (human) (UniProt Q9UJY1); test: as above
T5 sequence: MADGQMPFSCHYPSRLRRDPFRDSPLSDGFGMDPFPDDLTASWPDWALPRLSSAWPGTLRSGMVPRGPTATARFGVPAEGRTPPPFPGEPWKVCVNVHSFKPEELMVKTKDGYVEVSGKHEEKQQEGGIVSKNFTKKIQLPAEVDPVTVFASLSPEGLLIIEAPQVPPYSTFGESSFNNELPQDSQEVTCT

HspB8 R29A (human) [8] = target: T4, HspB8 R29A (human); test: SEC; equimolar mixture (30–40 µM each), reduced, preincubated 1 h at 42 °C in buffer B (20 mM Tris-acetate, 150 mM NaCl, 0.1 mM EDTA, 15 mM mercaptoethanol); Superdex 200 HR 10/30; fractions on SDS gels; correlation coefficient and molar ratio from band intensities; both purified
HspB8 Δ28–32 (human) [9] = target: T5, HspB8 Δ28–32 (human); test: as above
HspB6 Δ26–30 = target: T6, HspB6 Δ26–30 (human, UniProt O14558 1-160, Δ26–30); test: condition: only preincubated at 4 °C (without heating); 30–40 µM each; SEC; equimolar mixture (30–40 µM each), reduced, preincubated 1 h at 4 °C in buffer B (20 mM Tris-acetate, 150 mM NaCl, 0.1 mM EDTA, 15 mM mercaptoethanol); Superdex 200 HR 10/30; fractions on SDS gels; correlation coefficient and molar ratio from band intensities; both purified
T6 construct: also called Δ HspB6; Δ mutant of HspB6; source: E. coli BL21(DE3) pLysS, purified (ammonium sulfate, HiTrap Phenyl-Sepharose, Superdex 200)
T6 sequence (looked up): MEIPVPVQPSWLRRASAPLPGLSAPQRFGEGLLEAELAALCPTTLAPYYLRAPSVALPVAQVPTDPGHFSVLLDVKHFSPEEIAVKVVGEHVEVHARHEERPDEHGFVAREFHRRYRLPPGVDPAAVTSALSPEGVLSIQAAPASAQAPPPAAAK

HspB6 R27A = target: T7, HspB6 R27A (human, UniProt O14558 1-160, R27A); test: as above
T7 construct: also called R/A HspB6; R/A mutant of HspB6; source: E. coli BL21(DE3) pLysS, purified (ammonium sulfate, HiTrap Phenyl-Sepharose, Superdex 200)
T7 sequence (looked up): T3 sequence with R27A

Molecule: HspB1 R27A (from UniProt P04792 1-205)
binding [1]: no binding (tested: 30–40 µM each)
binding [2]: no binding (tested: 30–40 µM each)
binding [3]: no binding

B2: wild-type human small heat shock protein HspB5 (natural protein, UniProt P02511 1-175, looked up)
chain: T2 sequence
notes: WT cDNA in pET22b or pET23a, parent of the full-size mutants; No tag is named; Forms large homooligomers; also called WT HspB5; source: E. coli BL21(DE3) pLysS, purified (ammonium sulfate, HiTrap Q, Superdex 200)
binding [1]: no binding (tested: 30–40 µM each)
binding (HspB8 R29A (human) [6]): no binding (tested: 30–40 µM each)
binding (HspB8 Δ28–32 (human) [7]): no binding (tested: 30–40 µM each)
binding [4]: no binding (tested: 30–40 µM each)
binding (HspB8 R29A (human) [8]): no binding (tested: 30–40 µM each)
binding (HspB8 Δ28–32 (human) [9]): no binding (tested: 30–40 µM each)
binding [5]: no binding
binding (HspB6 Δ26–30): no binding
binding (HspB6 R27A): no binding

B3: HspB5 R22A (natural protein, human, UniProt P02511 1-175, looked up)
chain: T2 sequence with R22A
notes: also called R/A HspB5; R/A mutant of HspB5; source: E. coli BL21(DE3) pLysS, purified (ammonium sulfate, HiTrap Q, Superdex 200)
binding [1]: no binding (tested: 30–40 µM each)
binding [4]: no binding (tested: 30–40 µM each)
binding [5]: no binding

Next, values leading:

binding [1]: no binding (tested: 30–40 µM each)
binding [2]: no binding (tested: 30–40 µM each)
binding [3]: no binding
Molecule: HspB1 Δ26–30 (from UniProt P04792 1-205)

binding [1]: no binding (tested: 30–40 µM each)
binding [4]: no binding (tested: 30–40 µM each)
binding [5]: no binding
B1: HspB5 Δ21–25 (natural protein, human, UniProt P02511 1-175, looked up)
chain: MDIAIHHPWIRRPFFPFHSPQFFGEHLLESDLFPTSTSLSPFYLRPPSFLRAPSWFDTGLSEMRLEKDRFSVNLDVKHFSPEELKVKVLGDVIEVHGKHEERQDEHGFISREFHRKYRIPADVDPLTITSSLSSDGVLTVNGPRKQVSGPERTIPITREEKPAVTAAPKK
notes: also called Δ HspB5; Δ mutant of HspB5; source: E. coli BL21(DE3) pLysS, purified (ammonium sulfate, HiTrap Q, Superdex 200)

Source: paper PMC7352286, “The Heterooligomerization of Human Small Heat Shock Proteins Is Controlled by Conserved Motif Located in the N-Terminal Domain” (International Journal of Molecular Sciences, 2020)
